Measured data: PubChem BioAssay AID743121 (NCATS, 2013)

- Aim: 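Knock-downs that sensitise breast cancer cells to camptothecin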 (primary screen)
- Cell system: MDA-MB-231 cells, a human breast cancer line
- Reagent: single siRNA against human genes, 20 nM siRNA (0.8 pmol per well)
- Timing: 120 h (drug added 48 h after transfection, read 72 h later)
- Challenge: camptothecin 20 nM (about EC30) for 72 h; vehicle 0.1% DMSO in parallel plates
- Detection: 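Cell viability by ATP luminescence (CellTiter-Glo) as % of non-targeting siRNA wells, and the log2 ratio of viability without drug over viability with camptothecin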
- Direction: log2 vehicle/camptothecin viability: higher = stronger sensitisation to camptothecin; viability with camptothecin: higher = more viable cells
- Units: viability with camptothecin in % of control
- Hit rule: 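Each gene scored by redundant siRNA activity (RSA) over its individual siRNA ratios; a gene is called active at p < 0.001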
Here is a random part of about 26,000 reagents tested. 167 of all reagents (0.63%) count as active. 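Calls are per gene from RSA p-values that are not deposited; an individual active-marked siRNA can sensitise only weakly.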 Reagents against one gene are numbered here. Not all columns of the deposit are shown.

For IRF2BPL (interferon regulatory factor 2 binding protein like) #1, what does the deposit list?
log2 vehicle/camptothecin viability: -0.55; viability with camptothecin: 77.2; Call: inactive

Which result is listed for IRF2BPL (interferon regulatory factor 2 binding protein like) #2?
log2 vehicle/camptothecin viability: -0.46; viability with camptothecin: 96; Call: inactive

With IRF2BPL (interferon regulatory factor 2 binding protein like) #3, what does the deposit list?
log2 vehicle/camptothecin viability: -0.0497; viability with camptothecin: 116; Call: inactive

Which result is listed for IRF2BPL (interferon regulatory factor 2 binding protein like) #4?
log2 vehicle/camptothecin viability: -0.177; viability with camptothecin: 107; Call: inactive

With ACP3 (acid phosphatase 3) #1, what was measured?
log2 vehicle/camptothecin viability: -0.222; viability with camptothecin: 88.8; Call: inactive

With ACP3 (acid phosphatase 3) #2, how do the results read?
log2 vehicle/camptothecin viability: -0.133; viability with camptothecin: 89.7; Call: inactive

With ACP3 (acid phosphatase 3) #3, what was measured?
log2 vehicle/camptothecin viability: -0.509; viability with camptothecin: 98.3; Call: inactive

For ACP3 (acid phosphatase 3) #4, what was measured?
log2 vehicle/camptothecin viability: -0.192; viability with camptothecin: 76.8; Call: inactive

For KCNIP4 (potassium voltage-gated channel interacting protein 4) #1, how do the results read?
log2 vehicle/camptothecin viability: 0.0109; viability with camptothecin: 62.1; Call: inactive

With KCNIP4 (potassium voltage-gated channel interacting protein 4) #2, what was measured?
log2 vehicle/camptothecin viability: -0.0738; viability with camptothecin: 79.5; Call: inactive

With KCNIP4 (potassium voltage-gated channel interacting protein 4) #3, what was measured?
log2 vehicle/camptothecin viability: -1.31; viability with camptothecin: 56.5; Call: inactive

What is on record for KCNIP4 (potassium voltage-gated channel interacting protein 4) #4?
log2 vehicle/camptothecin viability: -0.119; viability with camptothecin: 106; Call: inactive

For TBL3 (transducin beta like 3) #1, how do the results read?
log2 vehicle/camptothecin viability: -0.346; viability with camptothecin: 57.8; Call: inactive

For TBL3 (transducin beta like 3) #2, how do the results read?
log2 vehicle/camptothecin viability: -0.605; viability with camptothecin: 63.5; Call: inactive

With TBL3 (transducin beta like 3) #3, how do the results read?
log2 vehicle/camptothecin viability: -0.313; viability with camptothecin: 66.6; Call: inactive

How did the screen score TBL3 (transducin beta like 3) #4?
log2 vehicle/camptothecin viability: -0.361; viability with camptothecin: 73.6; Call: inactive

With ASB17 (ankyrin repeat and SOCS box containing 17) #1, how do the results read?
log2 vehicle/camptothecin viability: -0.27; viability with camptothecin: 126; Call: inactive

For ASB17 (ankyrin repeat and SOCS box containing 17) #2, what does the deposit list?
log2 vehicle/camptothecin viability: -0.143; viability with camptothecin: 123; Call: inactive

What is on record for ASB17 (ankyrin repeat and SOCS box containing 17) #3?
log2 vehicle/camptothecin viability: 0.0853; viability with camptothecin: 85.1; Call: inactive

For RTBDN (retbindin) #1, what was measured?
log2 vehicle/camptothecin viability: -0.103; viability with camptothecin: 78; Call: inactive

Which result is listed for RTBDN (retbindin) #2?
log2 vehicle/camptothecin viability: -0.648; viability with camptothecin: 103; Call: inactive

How did the screen score RTBDN (retbindin) #3?
log2 vehicle/camptothecin viability: -0.175; viability with camptothecin: 119; Call: inactive

Which result is listed for RTBDN (retbindin) #4?
log2 vehicle/camptothecin viability: -0.373; viability with camptothecin: 66.6; Call: inactive

For FBXO3 (F-box protein 3) #1, what does the deposit list?
log2 vehicle/camptothecin viability: 0.0294; viability with camptothecin: 21.9; Call: inactive

With FBXO3 (F-box protein 3) #2, what does the deposit list?
log2 vehicle/camptothecin viability: 0.128; viability with camptothecin: 35.2; Call: inactive

Which result is listed for FBXO3 (F-box protein 3) #3?
log2 vehicle/camptothecin viability: -0.284; viability with camptothecin: 69.9; Call: inactive

How did the screen score FBXO3 (F-box protein 3) #4?
log2 vehicle/camptothecin viability: 0.0778; viability with camptothecin: 69; Call: inactive

For SBK1 (SH3 domain binding kinase 1) #1, what does the deposit list?
log2 vehicle/camptothecin viability: 1.36; viability with camptothecin: 30.5; Call: inactive

What is on record for SBK1 (SH3 domain binding kinase 1) #2?
log2 vehicle/camptothecin viability: 0.11; viability with camptothecin: 81.5; Call: inactive

For SBK1 (SH3 domain binding kinase 1) #3, what was measured?
log2 vehicle/camptothecin viability: -0.141; viability with camptothecin: 121; Call: inactive

What did the screen give for SBK1 (SH3 domain binding kinase 1) #4?
log2 vehicle/camptothecin viability: -0.0129; viability with camptothecin: 49.5; Call: inactive

Already shown: entries from further up.
ACP3 (acid phosphatase 3) #3 — log2 vehicle/camptothecin viability: -0.509; viability with camptothecin: 98.3; Call: inactive
ACP3 (acid phosphatase 3) #4 — log2 vehicle/camptothecin viability: -0.192; viability with camptothecin: 76.8; Call: inactive
KCNIP4 (potassium voltage-gated channel interacting protein 4) #1 — log2 vehicle/camptothecin viability: 0.0109; viability with camptothecin: 62.1; Call: inactive
KCNIP4 (potassium voltage-gated channel interacting protein 4) #2 — log2 vehicle/camptothecin viability: -0.0738; viability with camptothecin: 79.5; Call: inactive

The list goes on:
For MYD88 (MYD88 innate immune signal transduction adaptor) #1, how do the results read?
log2 vehicle/camptothecin viability: -0.275; viability with camptothecin: 92.8; Call: inactive

With MYD88 (MYD88 innate immune signal transduction adaptor) #2, how do the results read?
log2 vehicle/camptothecin viability: -0.593; viability with camptothecin: 103; Call: inactive

For MYD88 (MYD88 innate immune signal transduction adaptor) #3, what was measured?
log2 vehicle/camptothecin viability: 0.192; viability with camptothecin: 71.1; Call: inactive

With MYD88 (MYD88 innate immune signal transduction adaptor) #4, what does the deposit list?
log2 vehicle/camptothecin viability: 0.173; viability with camptothecin: 44.5; Call: inactive

With RFC2 (replication factor C subunit 2) #1, what was measured?
log2 vehicle/camptothecin viability: -0.277; viability with camptothecin: 95.6; Call: inactive

For RFC2 (replication factor C subunit 2) #2, what does the deposit list?
log2 vehicle/camptothecin viability: 0.217; viability with camptothecin: 57.4; Call: inactive

What is on record for RFC2 (replication factor C subunit 2) #3?
log2 vehicle/camptothecin viability: 0.0104; viability with camptothecin: 91.2; Call: inactive

With RFC2 (replication factor C subunit 2) #4, what was measured?
log2 vehicle/camptothecin viability: -0.261; viability with camptothecin: 71.8; Call: inactive

With LYPD5 (LY6/PLAUR domain containing 5) #1, what does the deposit list?
log2 vehicle/camptothecin viability: -0.108; viability with camptothecin: 45.4; Call: inactive

For LYPD5 (LY6/PLAUR domain containing 5) #2, what was measured?
log2 vehicle/camptothecin viability: 0.0808; viability with camptothecin: 73.9; Call: inactive

For LYPD5 (LY6/PLAUR domain containing 5) #3, what was measured?
log2 vehicle/camptothecin viability: -0.114; viability with camptothecin: 54.9; Call: inactive

What did the screen give for LYPD5 (LY6/PLAUR domain containing 5) #4?
log2 vehicle/camptothecin viability: -0.561; viability with camptothecin: 72.5; Call: inactive

For IFT27 (intraflagellar transport 27) #1, how do the results read?
log2 vehicle/camptothecin viability: -0.43; viability with camptothecin: 19.3; Call: inactive

For IFT27 (intraflagellar transport 27) #2, what was measured?
log2 vehicle/camptothecin viability: 0.248; viability with camptothecin: 36.6; Call: inactive

For IFT27 (intraflagellar transport 27) #3, what does the deposit list?
log2 vehicle/camptothecin viability: -0.178; viability with camptothecin: 64.7; Call: inactive

What did the screen give for IFT27 (intraflagellar transport 27) #4?
log2 vehicle/camptothecin viability: -0.178; viability with camptothecin: 111; Call: inactive
